Results deposited as PubChem BioAssay AID1259286 (Sanger Institute, 2017).

Test: 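Kinases whose loss adds to targeted drug killing of colorectal cancer cells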 (primary screen)
Cell system: NCI-H630 human colorectal cancer cells
Knock-down reagent: siRNA pool against human genes
Challenge: anchor drugs BYL719 at 1 µM, cetuximab at 5 µg/ml or trametinib at 10 nM, or DMSO vehicle alone; exposure time not given
Read-out: 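Replicate-averaged viability as a fraction of non-targeting control, knock-down-alone robust z-score, and per-drug synergy scores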
Direction: viability z-score, knock-down alone: higher = more viable cells, weaker knock-down effect; viability vs control, knock-down alone: higher = more viable cells
Units: viability vs control, knock-down alone in fraction of control
Rule for the call: 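Essential call: robust z-score of viability with siRNA alone lower than -3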
Calls: active = essential when knocked down alone; inactive = not essential alone
In all, the deposit lists 794 reagents; this is a random part of them. 17 of all reagents (2.1%) were called active. 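Calls use knock-down alone only; synergy above 0.15 marked separately; viability seems capped at control level; exposure time not given.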 Further read-outs or replicates are left out here. Not stated in the record: the amount of reagent, the time to read-out.

{"Target gene": "RPS6KC1", "viability z-score, knock-down alone": 0.464, "viability vs control, knock-down alone": 1, "outcome": "inactive"}
{"Target gene": "APC", "viability z-score, knock-down alone": 0.464, "viability vs control, knock-down alone": 1, "outcome": "inactive"}
{"Target gene": "CPNE3", "viability z-score, knock-down alone": 0.464, "viability vs control, knock-down alone": 1, "outcome": "inactive"}
{"Target gene": "IRAK1", "viability z-score, knock-down alone": -0.821, "viability vs control, knock-down alone": 0.951, "outcome": "inactive"}
{"Target gene": "POMK", "viability z-score, knock-down alone": 0.115, "viability vs control, knock-down alone": 0.987, "outcome": "inactive"}
{"Target gene": "AXL", "viability z-score, knock-down alone": 0.464, "viability vs control, knock-down alone": 1, "outcome": "inactive"}
{"Target gene": "EPHB1", "viability z-score, knock-down alone": 0.464, "viability vs control, knock-down alone": 1, "outcome": "inactive"}
{"Target gene": "BMAL1", "viability z-score, knock-down alone": -0.931, "viability vs control, knock-down alone": 0.947, "outcome": "inactive"}
{"Target gene": "PIK3R4", "viability z-score, knock-down alone": -2.28, "viability vs control, knock-down alone": 0.896, "outcome": "inactive"}
{"Target gene": "GUCY2D", "viability z-score, knock-down alone": -2.95, "viability vs control, knock-down alone": 0.871, "outcome": "inactive"}
{"Target gene": "PIK3C2G", "viability z-score, knock-down alone": 0.464, "viability vs control, knock-down alone": 1, "outcome": "inactive"}

Just “viability z-score, knock-down alone”, for 2 of the entries above:
BMAL1: -0.931
PIK3R4: -2.28

Additional results follow:
{"Target gene": "FER", "viability z-score, knock-down alone": -1.17, "viability vs control, knock-down alone": 0.938, "outcome": "inactive"}
{"Target gene": "NME6", "viability z-score, knock-down alone": -0.0209, "viability vs control, knock-down alone": 0.982, "outcome": "inactive"}
{"Target gene": "EPHB6", "viability z-score, knock-down alone": 0.464, "viability vs control, knock-down alone": 1, "outcome": "inactive"}
{"Target gene": "MAP3K6", "viability z-score, knock-down alone": 0.464, "viability vs control, knock-down alone": 1, "outcome": "inactive"}
{"Target gene": "NR2F2", "viability z-score, knock-down alone": 0.464, "viability vs control, knock-down alone": 1, "outcome": "inactive"}
{"Target gene": "PRKD3", "viability z-score, knock-down alone": -4.24, "viability vs control, knock-down alone": 0.822, "outcome": "active"}
{"Target gene": "ETNK2", "viability z-score, knock-down alone": 0.464, "viability vs control, knock-down alone": 1, "outcome": "inactive"}
{"Target gene": "CRIM1", "viability z-score, knock-down alone": 0.464, "viability vs control, knock-down alone": 1, "outcome": "inactive"}
